From PubChem BioAssay AID504648 (National Center for Advancing Translational Sciences (NCATS), 2011)
The campaign covered roughly 390,000 compounds. About 610 (0.16%) were called active. Inconclusive results, whose numbers are uncertain, are shown with a selection of clear calls. Calls come from the whole dose curve; as a rule, active = well fitted inhibition curve with a large enough effect; inconclusive = small, poorly fitted or top-dose-only effect, or effect the other way, or another doubt; inactive = no such curve, though single readings can be large or run the other way. Potencies beside an inconclusive call are fits to weak or partial responses and may not hold up.

Test: Nrf2 qHTS screen for inhibitors: counterscreen for cytotoxicity
Conditions: A549 ARE-Fluc cells, CellTiter-Fluor viability, 18-24 h; activity change, negative = cytotoxicity: at 46 µM (top of the series)
Summary of the method: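 Cytotoxicity counterscreen: CellTiter-Fluor fluorescence was measured in A549 ARE_Fluc cells after 18-24 h of compound exposure in a concentration series. The subsequent BugLite luminescent read reports ARE-luciferase activity.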
% is set by controls: 0 for no effect and ±100 for the full control effect; potency is the fitted concentration of half-maximal effect.

| SMILES | Potency | activity change, negative = cytotoxicity |
| --- | --- | --- |
| Cc1cncn1CCc1nc2c3ccccc3nc(SCC(=O)Nc3ccccc3F)n2n1 | inconclusive: 29.1 µM [falling, single point] |  |
| CC(=O)Nc1cc(C(=O)N2CCc3ccccc3C2)ccc1Sc1ccc(C)cc1 | inconclusive: 29.1 µM [falling, single point] |  |
| Cc1ccc(NC(=O)COc2ccccc2C(N)=O)cc1S(=O)(=O)N1CCCCCC1 | inconclusive: 9.2 µM [falling, partial curve, poor fit] |  |
| O=[N+]([O-])c1ccc(/C=[N+](\[O-])[C@@H]2CCCC[C@@H]2/[N+]([O-])=C/c2ccc([N+](=O)[O-])o2)o1 | active: 20.6 µM |  |
| O=C(c1cc(-n2cnnc2)ccc1Cl)N1CCN(c2nc(-c3ccccc3)cs2)CC1 | inconclusive: 29.1 µM [falling, partial curve, poor fit] |  |
| Cc1ccc(Nc2nc(N)nc(-c3oc4ccccc4c3C)n2)cc1 | inconclusive: 0.366 µM [falling, full curve] |  |
| CC(=O)Nc1ccc(CNc2ncnc3ccc(-c4c(C)noc4C)cc23)cc1 | inactive |  |
| O=C(NNC(=O)c1cccc(C(F)(F)F)c1)c1ccncc1 | inconclusive: 20.6 µM [falling, single point] |  |
| CCCCC[C@H]1CN(CCc2ccccc2)C(=O)[C@@H]1CC(=O)NCc1ccc(OC)cc1 | inconclusive: 20.6 µM [falling, single point] |  |
| CCn1c(SCc2ccc([N+](=O)[O-])cc2)nnc1C(C)NC(=O)c1ccc(C)cc1 (stereo unspecified) | inconclusive: 7.31 µM [falling, partial curve, poor fit] |  |
| Cc1nnc(SCC(=O)N(C)CC(=O)Nc2ccc(F)cc2)n1Cc1ccccc1 |  | inactive: 2.44% |
| CCc1nc2ccc(C(=O)NCCCN3CCN(c4ccc(F)cc4)CC3)cc2nc1CC | inconclusive: 16.4 µM [falling, partial curve, poor fit] |  |
| Fc1ccc(Nc2nc(Nc3ccc(F)cc3)nc(N3CCOCC3)n2)cc1 | inconclusive: 14.6 µM [activator, partial curve, poor fit] |  |
| COCC(=O)n1nc(-c2ccc(C)cc2)nc1NCc1ccc(F)cc1 | inconclusive: 2.31 µM [falling, partial curve, poor fit] |  |
| COc1ccc(C(=O)NCC(c2ccc3c(c2)OCO3)N2CCN(c3ccc(F)cc3)CC2)cc1 (stereo unspecified) | inconclusive: 29.1 µM [falling, single point] |  |
| CN(C)c1cc[n+](Cc2ccccc2)cc1 | inconclusive: 1.64 µM [falling, full curve] |  |
| Cc1cccc(Oc2coc3cc(OCC(=O)NC4CCCCC4)ccc3c2=O)c1 | inconclusive: 20.6 µM [falling, partial curve, poor fit] |  |
| CC(=O)c1ccc(-c2cccc(C3C4C=CCCC4(C)C(=O)N3Cc3ccccc3)c2)cc1 (stereo unspecified) |  | inactive: -13.7% |
| COc1ccc(N/C=C/C(=O)c2cc(OC)c(OC)c(OC)c2)cc1 |  | inactive: -9.99% |
| COc1ccc(NC(=O)CN(C)C(=O)c2cc(-c3ccc(Cl)cc3)nc3ccccc23)cc1 |  | inactive: -10% |
| O=C(CCCN1C(=O)/C(=C\c2cccs2)SC1=S)Nc1ccccn1 | inconclusive: 29.1 µM [falling, single point] |  |
| COc1cc(N/N=C/c2ccc(N(C)C)cc2)ncn1 |  | inactive: 2.64% |

| SMILES | Potency | activity change, negative = cytotoxicity |
| --- | --- | --- |
| COc1ccccc1-n1cnc2c(c1=O)c1nc3ccccc3nc1n2-c1ccc(C)c(C)c1 | inconclusive: 16.4 µM [falling, partial curve] |  |
| Cc1ccccc1NC(=O)NC1(C(=O)NCCCN2CCOCC2)CCCCC1 |  | inactive: -4.04% |
| CC(C)CN(CC(C)C)S(=O)(=O)N1CCC(C(=O)NCc2ccc(F)cc2)CC1 | inconclusive: 32.6 µM [falling, partial curve, poor fit] |  |
| COc1ccc(Cl)cc1C(=O)n1cnc2ccccc21 | inconclusive: 29.1 µM [activator, single point] |  |
| Cc1ccc(CN2C(=O)c3ccccc3Sc3ccc(C(=O)NCCCN4CCOCC4)cc32)cc1 | inconclusive: 18.4 µM [falling, partial curve, poor fit] |  |
| CC(C)(C)C(=O)NCCCc1nc2ccccc2n1CCCOc1ccc(Cl)cc1 | inconclusive: 29.1 µM [falling, single point] |  |
| Cc1ccc2nc(Nc3ccc4[nH]c(=O)[nH]c4c3)c(-n3nc(C)cc3C)nc2c1 | inconclusive: 25.9 µM [falling, single point] |  |
| O=C(Oc1ccc2c3c(c(=O)oc2c1)CCC3)c1ccco1 | inconclusive: 25.9 µM [activator, partial curve, poor fit] |  |
| O=C(NCC1CCCO1)NC1(C(F)(F)F)Oc2ccccc2O1 (stereo unspecified) | inconclusive: 29.1 µM [falling, partial curve, poor fit] |  |
| Cc1cc(C(=O)Nc2sc(C)c(C)c2C#N)no1 | inconclusive: 16.4 µM [falling, partial curve, poor fit] |  |
| O=C1CCCN1CCCNc1ncnc2c1[nH]c1ccccc12 | inconclusive: 18.4 µM [activator, partial curve, poor fit] |  |
| CCc1ccc(C2=C(C)C(N3CCC(C(=O)NCCc4ccco4)CC3)=NS2(=O)=O)cc1 |  | inactive: -4.05% |
| COc1ccc(CN2C(=O)c3cccnc3C2=O)cc1S(=O)(=O)N1CCOc2ccc(C)cc21 | inconclusive: 32.6 µM [falling, partial curve, poor fit] |  |
| Cc1ccc(Oc2c(C(N)=O)cc([N+](=O)[O-])cc2[N+](=O)[O-])cc1 | active: 4.11 µM |  |
| Cc1ccc(Cl)cc1N1CCN(C(=O)c2cc3c(-c4ccccc4F)nn(C)c3s2)CC1 |  | inactive: -0.702% |
| COc1ccc(C(c2nnnn2Cc2ccccc2)N2CCN(c3nc4ccccc4s3)CC2)cc1 (stereo unspecified) |  | inactive: 7.83% |
| COc1ccc(N=Nc2ccc(O)c3ncccc23)cc1 | inconclusive: 13 µM [falling, partial curve] |  |
| Cc1ccc(N2CCN(S(=O)(=O)c3ccc4[nH]c5c(c4c3)CCCCC5)CC2)c(C)c1 |  | inactive: 4.72% |
| CCOc1cc(CNn2cn[nH]c2=S)cc(Cl)c1OCc1ccccc1F | inconclusive: 23.1 µM [falling, partial curve, poor fit] |  |
| CSc1cccc(NC(=O)Cn2ncn3c(cc4ccccc43)c2=O)c1 |  | inactive: -5.73% |
| COC(=O)c1cc2occc2n1CC(=O)Nc1ccc(C(C)C)cc1 |  | inactive: 2.42% |
| CC(C(=O)OCC(=O)Nc1ccc(S(=O)(=O)N2CCCCC2)cc1)N1C(=O)c2ccccc2C1=O (stereo unspecified) | inconclusive: 16.4 µM [falling, partial curve, poor fit] |  |

| SMILES | Potency | activity change, negative = cytotoxicity |
| --- | --- | --- |
| COc1ccc(C(O)Cn2c(=N)n(CCCN(C)C)c3ccccc32)cc1 (stereo unspecified) | inconclusive: 18.4 µM [falling, single point] |  |
| C=CC[n+]1ccc(/C=C2\C=Cc3cc(C)ccc3N2CC)c2ccccc21 | inconclusive: 3.66 µM [falling, single point] |  |
| O=C(O)c1ccccc1Nc1cc(Cl)c2nonc2c1[N+](=O)[O-] | inconclusive: 18.4 µM [falling, partial curve] |  |
| CCCc1c(C(=O)Nc2cc(C(C)(C)C)on2)cnn1-c1ccccc1 |  | inactive: 0% |
| CS(=O)(=O)c1nc(-c2ccccc2)cc(C(F)(F)F)n1 | inconclusive: 23.1 µM [falling, single point] |  |
| Cc1cccc(NC(=O)CSc2nc3ccc(NC(=O)COc4ccccc4F)cc3s2)c1 | inconclusive: 16.4 µM [falling, single point] |  |
| CCCn1nc(NC(=O)c2cccs2)c2cc3cc(C)ccc3nc21 |  | inactive: -15.8% |
| CN(CCO)c1cc(N2CCN(C(=O)c3ccco3)CC2)c2nonc2c1[N+](=O)[O-] | inconclusive: 23.1 µM [falling, partial curve, poor fit] |  |
| Cn1c(CSc2nc3ccc(Br)cc3[nH]2)nc2ccccc21 | inconclusive: 29.1 µM [falling, single point] |  |
| Cn1c2ccccc2c2nnc(SCC(=O)Nc3cccc(C(=O)O)c3)nc21 | inconclusive: 4.61 µM [falling, single point] |  |
| CCOc1ccc(NC(=S)NC(=O)/C=C/c2ccc(C)cc2)c([N+](=O)[O-])c1 |  | inactive: -18.6% |
| N#C/C(=C\C1CC2C=CC1C2)c1nc2ccccc2[nH]1 (stereo unspecified) | inconclusive: 32.6 µM [falling, partial curve, poor fit] |  |
| COc1ccc(CN2CCN(C(=O)c3ccc(-c4ccccc4)cc3)CC2)c(OC)c1OC |  | inactive: 2.41% |
| Cc1ccccc1NC(=S)N=Nc1c(O)n(C)c2ccc(S(=O)(=O)N3CCOCC3)cc12 | inconclusive: 23.1 µM [falling, partial curve, poor fit] |  |
| O=C(CCl)N(c1ccccc1)C1CCCCC1 | inconclusive: 29.1 µM [falling, single point] |  |
| CCN1CCCC1CNC(=O)COc1cc(=O)n(C)c2ccccc12 (stereo unspecified) | inconclusive: 5.8 µM [activator, single point] |  |
| Cc1cc(N/N=C/c2ccc(O)c(C)c2O)nc(-c2ccccc2O)n1 | inconclusive: 29.1 µM [falling, single point] |  |
| CN(C/C=C/c1ccccc1)Cc1cccc2ccccc12 |  | inactive: -2.92% |
| O=C(NCCCc1nc2ccccc2n1Cc1ccc(Cl)cc1Cl)c1ccco1 |  | inactive: 0.918% |
| Cc1ccc(N=C2NC(=O)/C(=C/c3cccn3C)S2)cc1C | inconclusive: 23.1 µM [falling, single point] |  |
| O=C(N/N=C/c1ccc([N+](=O)[O-])s1)c1cccc(Br)c1 | inconclusive: 16.4 µM [falling, partial curve] |  |
| COc1ccccc1CN1CCC(CNC(=O)c2cnn(-c3ccc(Cl)cc3)c2C2CCN(C(=O)OC(C)(C)C)CC2)CC1 | inconclusive: 20.6 µM [falling, partial curve, poor fit] |  |

Exported as labelled records: entries from further up.
Cc1nnc(SCC(=O)N(C)CC(=O)Nc2ccc(F)cc2)n1Cc1ccccc1
  activity change, negative = cytotoxicity: inactive: 2.44%
Cc1ccc(CN2C(=O)c3ccccc3Sc3ccc(C(=O)NCCCN4CCOCC4)cc32)cc1
  Potency: inconclusive: 18.4 µM [falling, partial curve, poor fit]
N#C/C(=C\C1CC2C=CC1C2)c1nc2ccccc2[nH]1 (stereo unspecified)
  Potency: inconclusive: 32.6 µM [falling, partial curve, poor fit]
